Results are given in words; binding and its absence hold for the method and conditions named. In cells and extracts the contact can be indirect. Some results given as binding are weak or reduced against the parent protein; the word gives no strength.
Tests used:
[1] = biological target: APP, endogenous full length, mouse forebrain (mouse) (UniProt P12023); assay: co-immunoprecipitation from mouse forebrain lysates, full length APP pulled down with anti-BACE1 antibody, rising detergent stringency
[2] = biological target: APP, endogenous full length, mouse forebrain (mouse) (UniProt P12023); assay: co-immunoprecipitation from mouse brain homogenates, serially increased detergent stringency
[3] = biological target: APP, endogenous, rat forebrain (rat) (UniProt P08592); assay: co-immunoprecipitation from rat brain homogenates, various antibodies
[4] = biological target: APP, endogenous, rat forebrain (rat) (UniProt P08592); assay: co-immunoprecipitation from rat forebrain lysates, IP with antibody to the C-terminus of APP
[5] = biological target: APP, endogenous, rat forebrain (rat) (UniProt P08592); assay: co-immunoprecipitation from rat brain after traumatic brain injury

Sequences of proteins named here, by UniProt entry; tags and fusion partners are left off. Residues count along the entry.
UniProt P12023, residues 18-770: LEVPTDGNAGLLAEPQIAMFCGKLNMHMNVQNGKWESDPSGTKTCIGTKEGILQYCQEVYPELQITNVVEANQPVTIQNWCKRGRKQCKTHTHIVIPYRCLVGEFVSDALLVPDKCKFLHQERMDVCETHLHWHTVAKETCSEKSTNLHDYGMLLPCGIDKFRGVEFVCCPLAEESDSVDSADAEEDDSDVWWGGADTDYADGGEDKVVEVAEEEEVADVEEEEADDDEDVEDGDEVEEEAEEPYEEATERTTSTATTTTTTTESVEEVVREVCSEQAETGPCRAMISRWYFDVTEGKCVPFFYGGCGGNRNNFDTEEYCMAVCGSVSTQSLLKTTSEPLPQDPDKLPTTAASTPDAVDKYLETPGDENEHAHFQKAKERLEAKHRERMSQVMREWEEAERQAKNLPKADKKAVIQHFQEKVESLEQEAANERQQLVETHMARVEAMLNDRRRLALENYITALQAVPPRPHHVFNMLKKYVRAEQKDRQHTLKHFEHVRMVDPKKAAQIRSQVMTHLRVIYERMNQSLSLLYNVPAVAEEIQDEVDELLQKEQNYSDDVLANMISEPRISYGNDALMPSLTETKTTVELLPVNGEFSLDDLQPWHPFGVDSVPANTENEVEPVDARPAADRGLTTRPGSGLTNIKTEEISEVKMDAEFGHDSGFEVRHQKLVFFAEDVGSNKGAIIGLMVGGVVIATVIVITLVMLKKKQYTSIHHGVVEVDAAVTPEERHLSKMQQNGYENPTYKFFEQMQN
UniProt P08592, residues 18-770: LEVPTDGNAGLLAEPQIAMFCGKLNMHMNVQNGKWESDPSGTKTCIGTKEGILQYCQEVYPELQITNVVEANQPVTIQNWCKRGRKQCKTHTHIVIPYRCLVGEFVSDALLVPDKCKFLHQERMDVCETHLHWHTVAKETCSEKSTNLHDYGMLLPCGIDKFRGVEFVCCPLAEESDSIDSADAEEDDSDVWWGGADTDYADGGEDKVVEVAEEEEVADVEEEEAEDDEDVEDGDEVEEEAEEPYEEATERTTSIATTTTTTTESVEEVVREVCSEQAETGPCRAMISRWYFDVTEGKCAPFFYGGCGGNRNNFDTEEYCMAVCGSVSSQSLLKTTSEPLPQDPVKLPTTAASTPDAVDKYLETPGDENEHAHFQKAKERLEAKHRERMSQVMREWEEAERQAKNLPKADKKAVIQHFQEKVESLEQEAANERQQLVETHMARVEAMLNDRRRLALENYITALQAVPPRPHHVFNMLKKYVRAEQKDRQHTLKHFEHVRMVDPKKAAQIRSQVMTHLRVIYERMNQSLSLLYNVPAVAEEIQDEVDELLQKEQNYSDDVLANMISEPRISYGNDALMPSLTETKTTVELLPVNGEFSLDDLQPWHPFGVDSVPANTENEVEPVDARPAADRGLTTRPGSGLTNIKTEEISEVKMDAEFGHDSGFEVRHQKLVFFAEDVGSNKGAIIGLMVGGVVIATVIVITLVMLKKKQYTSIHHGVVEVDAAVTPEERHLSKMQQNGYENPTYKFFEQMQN
UniProt P56818, residues 46-501: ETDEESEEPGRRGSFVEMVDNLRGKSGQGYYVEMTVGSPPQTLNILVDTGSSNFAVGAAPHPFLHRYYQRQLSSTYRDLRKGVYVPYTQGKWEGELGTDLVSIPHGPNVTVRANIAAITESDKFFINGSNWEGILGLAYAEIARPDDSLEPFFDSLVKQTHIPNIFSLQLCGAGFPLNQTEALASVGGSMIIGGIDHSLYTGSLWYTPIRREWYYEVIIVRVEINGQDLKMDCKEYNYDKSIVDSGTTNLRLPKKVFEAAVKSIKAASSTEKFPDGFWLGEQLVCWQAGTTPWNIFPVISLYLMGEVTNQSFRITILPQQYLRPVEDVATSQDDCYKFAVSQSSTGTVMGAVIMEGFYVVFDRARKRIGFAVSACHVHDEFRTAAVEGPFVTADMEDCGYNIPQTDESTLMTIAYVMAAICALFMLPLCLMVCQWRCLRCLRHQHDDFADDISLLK
UniProt Q64605, residues 30-1907: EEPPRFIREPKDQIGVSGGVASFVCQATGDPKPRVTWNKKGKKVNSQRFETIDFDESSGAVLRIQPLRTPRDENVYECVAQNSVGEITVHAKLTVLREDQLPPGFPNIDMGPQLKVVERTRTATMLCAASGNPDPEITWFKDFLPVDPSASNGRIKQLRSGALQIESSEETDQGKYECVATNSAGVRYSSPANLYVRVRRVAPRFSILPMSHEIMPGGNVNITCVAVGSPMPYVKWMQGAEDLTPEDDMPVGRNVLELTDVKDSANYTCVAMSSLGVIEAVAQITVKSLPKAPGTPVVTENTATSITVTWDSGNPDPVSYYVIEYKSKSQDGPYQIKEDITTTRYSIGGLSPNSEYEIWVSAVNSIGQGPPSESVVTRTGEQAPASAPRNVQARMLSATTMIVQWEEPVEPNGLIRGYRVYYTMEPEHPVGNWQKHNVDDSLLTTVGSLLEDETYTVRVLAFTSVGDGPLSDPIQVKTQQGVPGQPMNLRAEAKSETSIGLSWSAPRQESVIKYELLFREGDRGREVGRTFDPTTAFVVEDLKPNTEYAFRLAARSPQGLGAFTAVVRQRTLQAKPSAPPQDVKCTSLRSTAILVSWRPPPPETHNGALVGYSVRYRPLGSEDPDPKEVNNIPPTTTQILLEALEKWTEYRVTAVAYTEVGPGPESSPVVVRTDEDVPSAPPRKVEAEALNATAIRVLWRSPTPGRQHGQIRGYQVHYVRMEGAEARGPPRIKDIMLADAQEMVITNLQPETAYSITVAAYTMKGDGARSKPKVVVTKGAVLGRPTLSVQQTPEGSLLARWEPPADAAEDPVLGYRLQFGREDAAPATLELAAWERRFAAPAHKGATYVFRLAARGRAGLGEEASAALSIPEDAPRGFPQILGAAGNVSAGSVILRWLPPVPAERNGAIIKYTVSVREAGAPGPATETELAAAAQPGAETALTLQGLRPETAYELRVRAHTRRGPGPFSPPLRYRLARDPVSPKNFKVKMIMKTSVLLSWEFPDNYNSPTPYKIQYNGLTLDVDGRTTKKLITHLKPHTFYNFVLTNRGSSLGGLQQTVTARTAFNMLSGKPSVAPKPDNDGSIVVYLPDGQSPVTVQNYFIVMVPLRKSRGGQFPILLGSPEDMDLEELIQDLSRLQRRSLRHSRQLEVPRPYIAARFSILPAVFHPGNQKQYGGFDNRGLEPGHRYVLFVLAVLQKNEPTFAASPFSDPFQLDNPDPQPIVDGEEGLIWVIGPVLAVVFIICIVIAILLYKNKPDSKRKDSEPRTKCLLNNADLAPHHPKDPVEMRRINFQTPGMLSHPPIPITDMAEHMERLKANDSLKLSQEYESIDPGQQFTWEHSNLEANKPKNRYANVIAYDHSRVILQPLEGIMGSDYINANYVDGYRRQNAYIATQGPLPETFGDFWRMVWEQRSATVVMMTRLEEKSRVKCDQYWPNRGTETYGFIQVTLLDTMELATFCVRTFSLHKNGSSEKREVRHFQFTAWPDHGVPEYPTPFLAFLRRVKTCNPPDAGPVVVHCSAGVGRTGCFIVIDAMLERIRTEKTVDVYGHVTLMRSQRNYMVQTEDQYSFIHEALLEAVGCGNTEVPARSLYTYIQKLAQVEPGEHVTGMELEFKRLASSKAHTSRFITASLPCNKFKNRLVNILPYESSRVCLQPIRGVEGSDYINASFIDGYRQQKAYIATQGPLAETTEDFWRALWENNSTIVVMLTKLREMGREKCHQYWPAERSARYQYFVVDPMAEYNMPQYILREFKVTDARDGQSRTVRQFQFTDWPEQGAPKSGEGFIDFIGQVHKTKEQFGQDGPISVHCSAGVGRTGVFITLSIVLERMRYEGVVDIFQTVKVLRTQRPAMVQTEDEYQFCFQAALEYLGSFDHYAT

| Substance | binding [1] | binding [2] | binding [3] | binding [4] | binding [5] |
| --- | --- | --- | --- | --- | --- |
| BACE1, endogenous, mouse forebrain (from UniProt P56818 46-501) (enzyme) | binds | binds |  |  |  |
| PTPσ, endogenous, rat forebrain (from UniProt Q64605 30-1907) (receptor) |  |  | binds | binds | binds |
